Results on two molecules are retold here after article PMC11065694.

Protein sequences, listed by entry. Tags and fused reporters are not part of them. Residues count along the entry.
UniProt P05106, residues 27-788: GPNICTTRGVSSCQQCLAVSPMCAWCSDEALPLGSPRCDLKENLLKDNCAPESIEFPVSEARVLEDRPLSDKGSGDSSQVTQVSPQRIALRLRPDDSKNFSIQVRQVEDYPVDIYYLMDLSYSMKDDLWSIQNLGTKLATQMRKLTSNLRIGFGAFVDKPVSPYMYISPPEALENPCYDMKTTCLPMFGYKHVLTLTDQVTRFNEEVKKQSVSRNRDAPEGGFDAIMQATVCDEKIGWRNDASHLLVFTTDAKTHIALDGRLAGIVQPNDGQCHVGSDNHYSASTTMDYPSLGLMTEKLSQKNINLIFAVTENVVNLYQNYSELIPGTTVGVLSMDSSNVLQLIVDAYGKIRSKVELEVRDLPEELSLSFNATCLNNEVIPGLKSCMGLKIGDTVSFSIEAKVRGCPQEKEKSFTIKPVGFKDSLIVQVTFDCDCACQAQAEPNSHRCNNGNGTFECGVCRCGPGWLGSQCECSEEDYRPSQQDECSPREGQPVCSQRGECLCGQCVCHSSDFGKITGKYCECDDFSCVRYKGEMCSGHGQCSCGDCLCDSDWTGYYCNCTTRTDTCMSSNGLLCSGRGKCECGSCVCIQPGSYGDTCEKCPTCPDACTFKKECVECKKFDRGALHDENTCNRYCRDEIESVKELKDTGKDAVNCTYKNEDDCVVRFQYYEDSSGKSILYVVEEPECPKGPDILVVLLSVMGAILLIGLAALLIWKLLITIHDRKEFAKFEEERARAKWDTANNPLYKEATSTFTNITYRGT

These are yes or no findings as the source states them, for the method shown. In cells and extracts the contact can be indirect. These calls come from enrichment with a bait or labelling near it, and not all partners need be listed. A no says only that the protein was not detected with the bait.

This test addresses CD61-flag (integrin β3) (human) (UniProt P05106). Nature of the test: affinity purification with mass spectrometry; CD61-flag Co-IP lysates of CD103+CD61+ T cells compared with CD103+CD61- T cells; S-trap digestion; LC-MS/MS in DIA mode; label-free quantification.

B1: CD103 (integrin αE) (protein, UniProt P38570 19-1179)
chain: FNVDVARPWLTPKGGAPFVLSSLLHQDPSTNQTWLLVTSPRTKRTPGPLHRCSLVQDEILCHPVEHVPIPKGRHRGVTVVRSHHGVLICIQVLVRRPHSLSSELTGTCSLLGPDLRPQAQANFFDLENLLDPDARVDTGDCYSNKEGGGEDDVNTARQRRALEKEEEEDKEEEEDEEEEEAGTEIAIILDGSGSIDPPDFQRAKDFISNMMRNFYEKCFECNFALVQYGGVIQTEFDLRDSQDVMASLARVQNITQVGSVTKTASAMQHVLDSIFTSSHGSRRKASKVMVVLTDGGIFEDPLNLTTVINSPKMQGVERFAIGVGEEFKSARTARELNLIASDPDETHAFKVTNYMALDGLLSKLRYNIISMEGTVGDALHYQLAQIGFSAQILDERQVLLGAVGAFDWSGGALLYDTRSRRGRFLNQTAAAAADAEAAQYSYLGYAVAVLHKTCSLSYIAGAPRYKHHGAVFELQKEGREASFLPVLEGEQMGSYFGSELCPVDIDMDGSTDFLLVAAPFYHVHGEEGRVYVYRLSEQDGSFSLARILSGHPGFTNARFGFAMAAMGDLSQDKLTDVAIGAPLEGFGADDGASFGSVYIYNGHWDGLSASPSQRIRASTVAPGLQYFGMSMAGGFDISGDGLADITVGTLGQAVVFRSRPVVRLKVSMAFTPSALPIGFNGVVNVRLCFEISSVTTASESGLREALLNFTLDVDVGKQRRRLQCSDVRSCLGCLREWSSGSQLCEDLLLMPTEGELCEEDCFSNASVKVSYQLQTPEGQTDHPQPILDRYTEPFAIFQLPYEKACKNKLFCVAELQLATTVSQQELVVGLTKELTLNINLTNSGEDSYMTSMALNYPRNLQLKRMQKPPSPNIQCDDPQPVASVLIMNCRIGHPVLKRSSAHVSVVWQLEENAFPNRTADITVTVTNSNERRSLANETHTLQFRHGFVAVLSKPSIMYVNTGQGLSHHKEFLFHVHGENLFGAEYQLQICVPTKLRGLQVVAVKKLTRTQASTVCTWSQERACAYSSVQHVEEWHSVSCVIASDKENVTVAAEISWDHSEELLKDVTELQILGEISFNKSLYEGLNAENHRTKITVVFLKDEKYHSLPIIIKGSVGGLLVLIVILVILFKCGFFKRKYQQLNLESIRKAQLKSENLLEEEN
With B1, the binding result was “binds”.

B2: integrin β7 (protein, UniProt P26010 20-798)
chain: ELDAKIPSTGDATEWRNPHLSMLGSCQPAPSCQKCILSHPSCAWCKQLNFTASGEAEARRCARREELLARGCPLEELEEPRGQQEVLQDQPLSQGARGEGATQLAPQRVRVTLRPGEPQQLQVRFLRAEGYPVDLYYLMDLSYSMKDDLERVRQLGHALLVRLQEVTHSVRIGFGSFVDKTVLPFVSTVPSKLRHPCPTRLERCQSPFSFHHVLSLTGDAQAFEREVGRQSVSGNLDSPEGGFDAILQAALCQEQIGWRNVSRLLVFTSDDTFHTAGDGKLGGIFMPSDGHCHLDSNGLYSRSTEFDYPSVGQVAQALSAANIQPIFAVTSAALPVYQELSKLIPKSAVGELSEDSSNVVQLIMDAYNSLSSTVTLEHSSLPPGVHISYESQCEGPEKREGKAEDRGQCNHVRINQTVTFWVSLQATHCLPEPHLLRLRALGFSEELIVELHTLCDCNCSDTQPQAPHCSDGQGHLQCGVCSCAPGRLGRLCECSVAELSSPDLESGCRAPNGTGPLCSGKGHCQCGRCSCSGQSSGHLCECDDASCERHEGILCGGFGRCQCGVCHCHANRTGRACECSGDMDSCISPEGGLCSGHGRCKCNRCQCLDGYYGALCDQCPGCKTPCERHRDCAECGAFRTGPLATNCSTACAHTNVTLALAPILDDGWCKERTLDNQLFFFLVEDDARGTVVLRVRPQEKGADHTQAIVLGCVGGIVAVGLGLVLAYRLSVEIYDRREYSRFEKEQQQLNWKQDSNPLYKSAITTTINPRFQEADSPTL
Regarding B2, the binding result is “no binding”.
